This assay has as its target HER3 (human (endogenous in BT474 and MDA-MB-453)) (UniProt P21860). Nature of the assay: affinity purification with mass spectrometry; BT474 cells treated with DMSO or 500 nM neratinib for 24 h; HER3 immunoprecipitated from lysate; silver-stained gel bands excised, digested with trypsin, MALDI TOF-TOF, MASCOT search.

By UniProt entry, the sequences of proteins in these tests, tags left out. Residues count along the entry.
UniProt P21860, residues 20-1342: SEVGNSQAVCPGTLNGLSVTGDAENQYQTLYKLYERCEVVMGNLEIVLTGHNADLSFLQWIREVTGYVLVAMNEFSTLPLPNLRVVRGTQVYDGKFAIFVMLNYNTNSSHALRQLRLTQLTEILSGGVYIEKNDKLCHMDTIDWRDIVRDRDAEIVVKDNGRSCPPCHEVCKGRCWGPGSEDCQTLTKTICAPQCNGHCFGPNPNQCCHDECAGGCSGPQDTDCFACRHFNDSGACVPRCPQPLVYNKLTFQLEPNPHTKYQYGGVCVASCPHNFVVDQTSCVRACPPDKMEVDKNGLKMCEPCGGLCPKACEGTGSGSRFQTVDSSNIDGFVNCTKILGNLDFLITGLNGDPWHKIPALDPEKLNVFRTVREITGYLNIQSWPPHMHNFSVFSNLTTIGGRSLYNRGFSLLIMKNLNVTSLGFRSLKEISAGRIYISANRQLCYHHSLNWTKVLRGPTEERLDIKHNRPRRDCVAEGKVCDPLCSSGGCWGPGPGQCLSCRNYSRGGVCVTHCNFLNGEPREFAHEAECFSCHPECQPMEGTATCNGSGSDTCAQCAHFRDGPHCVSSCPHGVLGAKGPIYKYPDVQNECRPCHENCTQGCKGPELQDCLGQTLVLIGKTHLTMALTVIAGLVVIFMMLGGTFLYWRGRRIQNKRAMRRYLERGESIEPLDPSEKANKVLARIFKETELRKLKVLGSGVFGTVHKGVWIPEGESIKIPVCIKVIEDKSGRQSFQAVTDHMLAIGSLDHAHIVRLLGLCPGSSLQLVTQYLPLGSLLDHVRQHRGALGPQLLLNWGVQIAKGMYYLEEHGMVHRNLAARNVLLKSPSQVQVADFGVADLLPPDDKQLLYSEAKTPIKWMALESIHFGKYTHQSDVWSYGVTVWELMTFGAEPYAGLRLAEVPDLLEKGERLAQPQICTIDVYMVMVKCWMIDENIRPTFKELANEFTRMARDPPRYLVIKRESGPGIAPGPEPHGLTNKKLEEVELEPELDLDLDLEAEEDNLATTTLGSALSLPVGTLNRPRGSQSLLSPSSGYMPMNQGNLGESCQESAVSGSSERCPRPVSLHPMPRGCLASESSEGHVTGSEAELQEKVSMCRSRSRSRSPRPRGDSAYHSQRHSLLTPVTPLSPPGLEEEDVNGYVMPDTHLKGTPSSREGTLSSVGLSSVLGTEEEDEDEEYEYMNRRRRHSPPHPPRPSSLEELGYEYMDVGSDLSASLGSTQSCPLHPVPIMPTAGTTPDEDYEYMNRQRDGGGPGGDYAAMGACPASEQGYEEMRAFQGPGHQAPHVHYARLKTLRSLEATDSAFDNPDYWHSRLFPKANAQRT
UniProt P35579: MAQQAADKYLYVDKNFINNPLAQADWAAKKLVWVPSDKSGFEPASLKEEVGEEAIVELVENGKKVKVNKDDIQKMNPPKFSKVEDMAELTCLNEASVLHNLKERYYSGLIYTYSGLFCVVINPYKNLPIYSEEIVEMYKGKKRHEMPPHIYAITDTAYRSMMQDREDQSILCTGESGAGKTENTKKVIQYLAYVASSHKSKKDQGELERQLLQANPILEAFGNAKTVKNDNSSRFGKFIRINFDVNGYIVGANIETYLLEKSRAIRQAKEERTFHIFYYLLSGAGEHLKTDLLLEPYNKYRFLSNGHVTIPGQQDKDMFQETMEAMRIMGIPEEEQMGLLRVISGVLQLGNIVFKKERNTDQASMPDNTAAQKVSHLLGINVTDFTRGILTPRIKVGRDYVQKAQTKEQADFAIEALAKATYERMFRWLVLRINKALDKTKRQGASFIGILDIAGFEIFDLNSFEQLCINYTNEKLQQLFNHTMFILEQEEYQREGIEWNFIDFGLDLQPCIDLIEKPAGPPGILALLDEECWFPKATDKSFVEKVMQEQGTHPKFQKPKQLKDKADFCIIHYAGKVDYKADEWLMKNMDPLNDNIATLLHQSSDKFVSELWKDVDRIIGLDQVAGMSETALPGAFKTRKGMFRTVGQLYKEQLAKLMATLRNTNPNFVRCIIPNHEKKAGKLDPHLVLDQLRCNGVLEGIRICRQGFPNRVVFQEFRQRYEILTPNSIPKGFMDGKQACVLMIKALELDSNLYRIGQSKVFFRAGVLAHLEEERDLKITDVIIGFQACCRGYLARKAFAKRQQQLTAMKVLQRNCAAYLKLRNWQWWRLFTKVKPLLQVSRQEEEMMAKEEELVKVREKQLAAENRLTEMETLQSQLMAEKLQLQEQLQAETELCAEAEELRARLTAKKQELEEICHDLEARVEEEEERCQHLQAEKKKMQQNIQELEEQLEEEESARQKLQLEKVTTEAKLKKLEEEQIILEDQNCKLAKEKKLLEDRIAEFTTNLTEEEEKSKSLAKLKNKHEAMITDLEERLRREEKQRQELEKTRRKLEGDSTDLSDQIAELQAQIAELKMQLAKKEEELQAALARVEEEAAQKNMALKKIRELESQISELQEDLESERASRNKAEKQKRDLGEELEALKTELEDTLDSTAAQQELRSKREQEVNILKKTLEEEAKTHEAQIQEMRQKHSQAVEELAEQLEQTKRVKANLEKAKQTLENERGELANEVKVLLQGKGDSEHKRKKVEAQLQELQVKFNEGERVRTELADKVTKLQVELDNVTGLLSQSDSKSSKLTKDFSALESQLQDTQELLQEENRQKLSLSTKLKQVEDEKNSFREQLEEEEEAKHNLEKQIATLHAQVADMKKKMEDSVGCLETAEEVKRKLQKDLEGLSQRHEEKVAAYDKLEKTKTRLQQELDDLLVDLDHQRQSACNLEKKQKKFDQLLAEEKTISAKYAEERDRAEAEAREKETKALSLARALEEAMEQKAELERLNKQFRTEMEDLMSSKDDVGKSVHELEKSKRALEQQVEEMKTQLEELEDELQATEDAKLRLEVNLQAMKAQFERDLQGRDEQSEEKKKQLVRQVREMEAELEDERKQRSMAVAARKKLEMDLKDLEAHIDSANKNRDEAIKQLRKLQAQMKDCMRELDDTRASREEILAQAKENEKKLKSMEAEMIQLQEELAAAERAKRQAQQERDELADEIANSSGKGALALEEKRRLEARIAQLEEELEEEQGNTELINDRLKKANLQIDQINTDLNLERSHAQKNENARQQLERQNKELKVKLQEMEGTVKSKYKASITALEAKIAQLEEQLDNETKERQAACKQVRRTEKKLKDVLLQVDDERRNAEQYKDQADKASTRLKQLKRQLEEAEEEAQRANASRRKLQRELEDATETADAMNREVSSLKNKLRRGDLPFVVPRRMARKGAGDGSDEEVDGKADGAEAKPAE

Results are given in words; binding and its absence hold for the method and conditions named. Binding seen in cells or lysates may run through a third protein. These calls come from enrichment with a bait or labelling near it, and not all partners need be listed.

Binding data for 1 substance are collected here from publication PMC10194889.

Regarding “non-muscle myosin IIA (from UniProt P35579 1-1960)”, the binding result was “binds”.
